Record: PubChem BioAssay AID1259297 (Sanger Institute, 2017)

Screen: 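Kinases whose loss kills cells on their own or with targeted drugs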 (primary screen)
System: human RCM1 colorectal cancer cell line
Reagents: siRNA pool against human genes
Treatment: separate arms: DMSO vehicle, or one anchor drug at a mild dose: BYL719 1 µM, cetuximab 5 µg/ml, trametinib 10 nM
Measured: 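Viability per well relative to a non-targeting pool, mean of replicates; robust z-score for knock-down alone; synergy score with BYL719, cetuximab or trametinib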
Scale: viability z-score, knock-down alone: higher = more viable cells than non-targeting controls
Active means: 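Called essential if knock-down without drug gives a viability robust z-score under -3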
Calls: active = essential when knocked down alone; inactive = no clear loss of viability alone
Here is one part, drawn at random, of 794 deposited reagents. 13 of all reagents (1.6%) were called active. 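Calls reflect knock-down without drug only; drug synergy is judged separately, with scores above 0.15 counted as synergy.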 Unmarked entries are inactive. Not all columns of the deposit are shown. Not stated in the record: the amount of reagent, the time to read-out.

What is on record for HIPK1 (homeodomain interacting protein kinase 1)?
viability z-score, knock-down alone: 0.9

How did the screen score IPMK (inositol polyphosphate multikinase)?
viability z-score, knock-down alone: 0.9

How did the screen score GSK3A (glycogen synthase kinase 3 alpha)?
viability z-score, knock-down alone: -0.674

How did the screen score EPHB2 (EPH receptor B2)?
viability z-score, knock-down alone: -0.617

How did the screen score WNK4 (WNK lysine deficient protein kinase 4)?
viability z-score, knock-down alone: 0.9

With DGKK (diacylglycerol kinase kappa), what was measured?
viability z-score, knock-down alone: 0.556

Which result is listed for SGK2 (serum/glucocorticoid regulated kinase 2)?
viability z-score, knock-down alone: -0.432

For NR2F2 (nuclear receptor subfamily 2 group F member 2), what does the deposit list?
viability z-score, knock-down alone: 0.559

For PCK2 (phosphoenolpyruvate carboxykinase 2, mitochondrial), what was measured?
viability z-score, knock-down alone: 0.887

With NUAK1 (NUAK family kinase 1), what does the deposit list?
viability z-score, knock-down alone: -2.09

What is on record for STK35 (serine/threonine kinase 35)?
viability z-score, knock-down alone: 0.9

With CHUK, what does the deposit list?
viability z-score, knock-down alone: -0.00144

What is on record for NEK5 (NIMA related kinase 5)?
viability z-score, knock-down alone: -0.216

What is on record for IKBKE (inhibitor of nuclear factor kappa B kinase subunit epsilon)?
viability z-score, knock-down alone: 0.228

With CLK1 (CDC like kinase 1), what was measured?
viability z-score, knock-down alone: 0.361

For MAP4K2 (mitogen-activated protein kinase kinase kinase kinase 2), what was measured?
viability z-score, knock-down alone: -0.652

Which result is listed for ERBB4 (erb-b2 receptor tyrosine kinase 4)?
viability z-score, knock-down alone: -1.45

For TAOK3 (TAO kinase 3), how do the results read?
viability z-score, knock-down alone: -0.218

Part of the list above, set out differently:
{"target":"CHUK","viability z-score, knock-down alone":-0.00144}
{"target":"NEK5 (NIMA related kinase 5)","viability z-score, knock-down alone":-0.216}

Additional entries:
Which result is listed for PDK4 (pyruvate dehydrogenase kinase 4)?
viability z-score, knock-down alone: 0.786

What did the screen give for EPHA7 (EPH receptor A7)?
viability z-score, knock-down alone: 0.9

With SCYL3 (SCY1 like pseudokinase 3), what was measured?
viability z-score, knock-down alone: -0.458

With AMER1 (APC membrane recruitment protein 1), how do the results read?
viability z-score, knock-down alone: 0.114

Which result is listed for IGF1R (insulin like growth factor 1 receptor)?
viability z-score, knock-down alone: 0.00604

Which result is listed for MAP3K2 (mitogen-activated protein kinase kinase kinase 2)?
viability z-score, knock-down alone: 0.00687

What is on record for VRK1 (VRK serine/threonine kinase 1)?
viability z-score, knock-down alone: 0.31

With RPS6KA5 (ribosomal protein S6 kinase A5), what was measured?
viability z-score, knock-down alone: -0.263

With DGKH (diacylglycerol kinase eta), what does the deposit list?
viability z-score, knock-down alone: 0.0352

For VRK2 (VRK serine/threonine kinase 2), what does the deposit list?
viability z-score, knock-down alone: 0.337
